We go through four molecules from PMC3841102, “Activation of Smurf E3 Ligase Promoted by Smoothened Regulates Hedgehog Signaling through Targeting Patched Turnover” (PLoS Biology, 2013).

Protein sequences, listed by entry. Tags and fused reporters are not part of them.
UniProt Q9Y0H4: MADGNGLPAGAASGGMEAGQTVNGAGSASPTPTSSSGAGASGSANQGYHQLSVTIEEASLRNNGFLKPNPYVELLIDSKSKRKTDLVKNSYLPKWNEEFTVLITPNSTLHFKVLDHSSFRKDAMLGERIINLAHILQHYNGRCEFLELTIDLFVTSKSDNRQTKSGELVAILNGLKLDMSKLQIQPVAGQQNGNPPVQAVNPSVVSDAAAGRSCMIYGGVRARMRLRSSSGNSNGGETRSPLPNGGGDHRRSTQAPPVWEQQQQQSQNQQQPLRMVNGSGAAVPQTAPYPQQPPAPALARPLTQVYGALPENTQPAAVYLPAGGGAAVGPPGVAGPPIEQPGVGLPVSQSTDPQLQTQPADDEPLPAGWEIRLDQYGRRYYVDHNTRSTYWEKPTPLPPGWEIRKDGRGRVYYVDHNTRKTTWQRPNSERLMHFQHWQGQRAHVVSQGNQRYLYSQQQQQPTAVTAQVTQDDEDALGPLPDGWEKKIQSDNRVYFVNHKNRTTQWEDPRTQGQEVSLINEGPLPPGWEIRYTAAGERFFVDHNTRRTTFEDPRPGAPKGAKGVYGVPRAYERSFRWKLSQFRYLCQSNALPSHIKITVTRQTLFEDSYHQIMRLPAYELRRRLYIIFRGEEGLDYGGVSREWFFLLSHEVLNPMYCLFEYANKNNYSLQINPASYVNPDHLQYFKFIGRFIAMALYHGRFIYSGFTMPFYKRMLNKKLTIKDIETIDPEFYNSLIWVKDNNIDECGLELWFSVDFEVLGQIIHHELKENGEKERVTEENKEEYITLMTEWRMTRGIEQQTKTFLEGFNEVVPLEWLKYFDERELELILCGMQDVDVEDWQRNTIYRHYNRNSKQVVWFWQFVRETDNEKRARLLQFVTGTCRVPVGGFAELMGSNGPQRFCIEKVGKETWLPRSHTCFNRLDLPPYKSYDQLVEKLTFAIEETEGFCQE

Experiment [1] has as its target T1, Ptc^CTD (two-hybrid fusion) (Drosophila) (UniProt P18502).
T1 sequence: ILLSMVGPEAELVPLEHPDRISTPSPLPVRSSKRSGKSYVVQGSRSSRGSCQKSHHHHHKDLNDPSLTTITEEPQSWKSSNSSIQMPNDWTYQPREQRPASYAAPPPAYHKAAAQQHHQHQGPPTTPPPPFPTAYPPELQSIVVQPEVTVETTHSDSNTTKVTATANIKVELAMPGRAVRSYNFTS
The experiment in a line: two-hybrid; AH109 yeast; bait vector pGBKT7, prey vector pACT2; growth on permissive (-Leu/-Trp) and restrictive (-Ade/-His/-Leu/-Trp) medium.

Experiment [2] deals with T1, Ptc^CTD (two-hybrid fusion) (Drosophila). The experiment is described as above. This is another data set of the same source.
For experiment [3], the target named is T2, Myc-tagged Ptc (full-length Patched) (Drosophila) (UniProt P18502).
T2 sequence: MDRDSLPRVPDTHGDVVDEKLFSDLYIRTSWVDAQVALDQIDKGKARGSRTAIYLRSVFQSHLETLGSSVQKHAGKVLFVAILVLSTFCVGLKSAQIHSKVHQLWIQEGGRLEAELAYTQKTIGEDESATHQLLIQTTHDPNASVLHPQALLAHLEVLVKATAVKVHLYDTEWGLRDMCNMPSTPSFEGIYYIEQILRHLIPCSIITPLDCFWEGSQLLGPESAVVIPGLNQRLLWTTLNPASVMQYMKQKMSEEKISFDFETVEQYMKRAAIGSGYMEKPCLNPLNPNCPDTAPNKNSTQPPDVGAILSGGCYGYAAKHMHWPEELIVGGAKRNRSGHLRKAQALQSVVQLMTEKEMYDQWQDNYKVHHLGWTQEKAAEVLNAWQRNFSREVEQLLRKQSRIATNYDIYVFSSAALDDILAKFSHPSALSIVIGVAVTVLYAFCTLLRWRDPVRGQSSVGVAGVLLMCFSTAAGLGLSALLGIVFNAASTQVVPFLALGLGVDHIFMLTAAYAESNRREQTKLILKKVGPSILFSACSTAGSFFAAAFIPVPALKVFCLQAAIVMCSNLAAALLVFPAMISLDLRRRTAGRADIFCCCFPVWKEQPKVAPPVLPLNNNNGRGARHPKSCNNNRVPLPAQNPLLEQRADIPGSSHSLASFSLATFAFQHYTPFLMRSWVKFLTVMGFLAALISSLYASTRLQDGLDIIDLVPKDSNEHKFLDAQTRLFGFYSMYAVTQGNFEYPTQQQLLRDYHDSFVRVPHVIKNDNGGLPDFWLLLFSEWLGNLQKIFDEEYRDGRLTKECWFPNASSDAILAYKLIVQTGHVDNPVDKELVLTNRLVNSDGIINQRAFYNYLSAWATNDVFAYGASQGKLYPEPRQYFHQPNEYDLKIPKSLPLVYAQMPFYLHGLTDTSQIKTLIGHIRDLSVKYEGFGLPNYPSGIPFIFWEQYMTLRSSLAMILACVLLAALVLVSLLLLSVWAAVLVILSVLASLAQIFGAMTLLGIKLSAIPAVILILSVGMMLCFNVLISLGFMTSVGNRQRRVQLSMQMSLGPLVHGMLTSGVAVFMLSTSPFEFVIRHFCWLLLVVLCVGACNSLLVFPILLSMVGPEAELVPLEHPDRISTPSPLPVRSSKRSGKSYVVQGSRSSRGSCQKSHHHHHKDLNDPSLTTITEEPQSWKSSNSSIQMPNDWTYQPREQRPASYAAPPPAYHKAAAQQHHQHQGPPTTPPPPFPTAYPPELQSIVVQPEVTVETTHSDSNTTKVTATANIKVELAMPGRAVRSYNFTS
Put plainly: co-IP; transfected S2 cells, lysates after 48 h; anti-Flag M2 affinity gel or anti-Myc affinity gel; NaCl adjusted to 500 mM, washes with 500 mM NaCl; Western blot; for Smo with Smurf (Figure 5C,D) cells treated with Hh medium for 12 h.

Experiment [4] addresses T3, endogenous Ptc protein (Drosophila (endogenous in S2 cells)) (UniProt P18502).
T3 sequence: T2 sequence
The experiment in a line: co-IP; S2 cell lysates, endogenous proteins; immunoprecipitated with mouse anti-Ptc antibody or control mouse IgG; Western blot.

Read-outs that look alike come from different tables or passages of the source. No constants are given. Whether binding was seen depends on the method and setting. For some of these results: In cells and extracts the contact can be indirect. Some binding calls cover weakened binding; strength is not graded here. For some of these results: Sequences can lack the tags named with a protein.

In the case of “Su(dx) (two-hybrid fusion) (from UniProt Q9Y0H4 1-949) (enzyme)”, in experiment [1], the binding result is given as “binds”.

B1: Nedd4 (two-hybrid fusion) (enzyme, UniProt Q9VVI3 1-1007)
chain: MSARSSGLVAAAALPVPSSSSSVAGGDVPRPPPRRRAASVAGQQQTRQEFGNGYTPRRSLAAVNDSGDSCHLRIVVLTGQSLAKKDIFGASDPYVRIDLNTINGDINIDSVLTKTKKKTLNPTWNEEFIFRVKPSEHKLVFQVFDENRLTRDDFLGMVELTLVNLPTEQEGRTIGEQSYTLRPRRSVGAKSRIKGTLRIYHAFIRETREQSEPSSGNSDGEWEHVEATNAGETSAQPHPFPTGGHDALPAGWEERQDANGRTYYVNHTARTTQWDRPTVLNSHSSQSTDDQLASDFQRRFHISVDDTESGRSADSISHNSIEDNNNAAGLAYTPKTAATSSAPPNTPTNNNGILAQIAMQYRAEEDQDPTVDHTSFVYNSLRHPVAHRQPEISATSLQNDLRPVREAPGVPDIAITNPFTRRAAGNMAGGAGWQQERRRQQMQLHIQQHQQRQQQQQQNRILLDVDHRQQEPQHRGQRHQQQHRPSNEDTDHTDSHNPSDISAPSTRRNSEEDNAAVPPMEQNTGGEEEPLPPRWSMQVAPNGRTFFIDHASRRTTWIDPRNGRASPMPNQTRRVEDDLGPLPEGWEERVHTDGRVFYIDHNTRTTQWEDPRLSNPNIAGQAVPYSRDYKQKYEYFKSHIRKPTNVPNKFEIRIRRTSILEDSYRIISSVTKTDLLKTKLWVEFEGETGLDYGGLAREWFYLLSKEMFNPYYGLFEYSAMDNYTLQINNGSGLCNEEHLSYFKFIGRIAGMAVYHGKLLDAFFIRPFYKMMLQKPIDLKDMESVDTEYYNSLMWIKENDPRILELTFCLDEDVFGQKSQHELKPGGANIDVTNENKDEYIKLVIEWRFVARVKEQMSSFLDGFGSIIPLNLIKIFDEHELELLMCGIQNIDVKDWRENTLYKGDYHMNHIIIQWFWRAVLSFSNEMRSRLLQFVTGTSRVPMNGFKELYGSNGPQMFTIEKWGTPNNFPRAHTCFNRLDLPPYEGYLQLKDKLIKAIEGSQGFAGVD
Consider B1, for which the binding entry in experiment [2] is “binds”.

B2: Flag-tagged Smurf (enzyme, UniProt Q9V853 1-1061)
chain: MNKLDYPRRNGTHKVRITILCARNLARKDLFRLPDPFAKVQVDGTGQVYSTEISKSSLDPKWNAHYDLFLGIGDAITITVWNQRKIHKGSGFLGCVRIPAFNIQSLKGAGFQRLDLGKLSPDDDELVRGQIIISLLSKDGPSSGNPLAIVGPSGDVRGPSEDDSSEDSLPEGWEERRTDNGRVYYVNHATKSTQWDRPRQPGVVGSSHATSPQQRHNTHNGNSGDRQAPAGPTRSTTCTNLMNNGHRSRDLSVTASDERRHSTEILSSVGKENTSPTTPVSATTTPGKKTSSSNSSSAGGRTLEQRPTNEPATPTSSTTSASVRLHSNDNHVKTPKHQTNGHAPPESTPTSPTGQQNYVNGNAQNGSTSGNGSGQAAQPQSASNGWTQEDAATTTSPSTTTSPPRHSQSPPTPNISPPASVTPSANGNVHSPNANSTPAGSGGGSRSYTAATPGQRSQRRSSRQQGEESSTRRRSSRGTRNGGTSGGGGGGGSGQRYASAAIAAANQAARPFLDLPPGYEMRTTQQGQVYFYHIPTGVSTWHDPRIPRDFDTQHLTLDAIGPLPSGWEQRKTASGRVYFVDHNNRTTQFTDPRLSGSILQMIRRGTVPPTSAANAGTPAPPSATPATPSAAAAVPPQATPASNATPTTLTTTTNPPHRIVPDLPQGLLEGADLLPKYRRDLVGKLRALRTELQTMQPQSGHCRLEVSRNEIFEESYRLIMKMRAKDMRKRLMVKFKGEEGLDYGGVAREWLHLLSREMLNPQYGLFQYSRDDHYTLQINPDSGVNPDHLSYFHFVGRTLGIAVFHGHCLDGGFTTPFYKQLLNKPITLGDIEGVDPDLHRSLTWMLESNISGIIESTFSVENNSFGALVVHELKPGGASIPVTEENKREYVKLYVNYRFMRGIEQQFLALQKGFCELIPSHLLRPFDERELELVIGGISSIDVNDWRNNTRLKHCTNETTQVLWFWQVVESYSSEMRARLLQFVTGSSRVPLQGFRALQGSTGAVGPRLFTIHLTADVPTQNLPKAHTCFNRIDLPPYETYQLLCDKLTQAVEETCGFAVE
Consider B2, for which, in experiment [3], the binding entry was “binds”.

B3: endogenous Smurf protein (enzyme, UniProt Q9V853 1-1061)
chain: B2 chain
On to B3, for which the binding entry in experiment [4] is recorded as “binds”.
